# Hit rate of the full screen: of about 320,000 compounds, about 22,000 (6.9%) were called active. The inconclusive results got no clear call from the source; some entries with a clear call stand among them for comparison. Calls follow the shape of the dose curve; as a rule, active = well fitted inhibition curve with a large enough effect; inconclusive = small, poorly fitted or top-dose-only effect, or another doubt; inactive = no such curve, though single readings can be large or run the other way. Potencies beside an inconclusive call are fits to weak or partial responses and may not hold up.
# Experiment: Primary qHTS for delayed death inhibitors of the malarial parasite plastid, 96 hour incubation
# Details: P. falciparum luciferase reporter growth; series mostly up to 28.7 µM; activity change, negative = inhibition: at the top concentration
# Procedure, shortened: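 96 h incubation, 37 C, 5% CO2, of luciferase-reporter P. falciparum-infected RBCs (2% hematocrit, 0.05% parasitemia final) with test compounds; endpoint luminescence.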
# % is scaled to controls: 0 for no effect and ±100 for the full control effect; potency is read from the fitted curve at half-maximal effect.
SMILES,Potency,"activity change, negative = inhibition"
CCOC(=O)COn1c(-n2nc(C)cc2C)nc2ccccc2c1=O,active: 1.47 µM,
COc1ccc(Cl)cc1NC(=O)C/C(C)=N/NC(=O)c1ccc(O)cc1,"inconclusive: 13.1 µM [inhibitor, partial curve, poor fit]",
CCc1ccc(C(=O)Nc2ccc3c(c2)n(C)c(=O)n3C)cc1,"inconclusive: 5.86 µM [inhibitor, partial curve, poor fit]",
CCN(CC)CCc1nc(-c2ccccc2)no1,inactive,
CCN(CC)CCCNC(=O)c1nn(-c2cccc(OC)c2)c(=O)c2ccccc12,"inconclusive: 0.738 µM [inhibitor, partial curve, poor fit]",
Cn1c(C(=O)N/N=C/c2ccccc2)cc2ccccc21,,inactive: -8.64%
COc1ccccc1N=C1SCC(=O)N1Cc1ccco1,,inactive: 0.487%
NCC(O)COc1ccc2c(c1)OCO2 (centres undefined),,inactive: 2.69%
O=c1cc(NCC2CCCO2)[nH]c(=O)n1-c1ccc(Cl)cc1 (centres undefined),,inactive: 6.12%
CCC(=O)N1CCc2cc(Br)cc(S(=O)(=O)N(C)c3ccc(OC)cc3)c21,"inconclusive: 0.37 µM [inhibitor, full curve, poor fit]",
COc1ccc(CC(=O)OCCc2cc3cc(OC)c(OC)cc3c(=O)o2)cc1,"inconclusive: 16.5 µM [inhibitor, single point]",
COc1ccccc1N1CCN(Cc2ccc(OC)c(OC)c2OC)CC1,"inconclusive: 18.5 µM [inhibitor, single point]",
CN(C)c1ccc(C(=C2C=CC(=[N+](C)C)C=C2)c2c(O)c(S(=O)(=O)[O-])cc3cc(S(=O)(=O)O)ccc23)cc1,active: 6.01 µM,
Cc1ccc(S(=O)(=O)NCCc2ccncc2)cc1,,inactive: 194%
O=C(N1CCOCC1)N(CCN1CCOCC1)Cc1cccc2ccccc12,"inconclusive: 9.28 µM [inhibitor, partial curve, poor fit]",
COc1ccc(CCN(C)CC(=O)Nc2ccc(F)c(Cl)c2)cc1OC,"inconclusive: 14.7 µM [inhibitor, partial curve, poor fit]",
Cc1cc(=O)oc2c(C)c(OCC(=O)NCCCN3CCCC3=O)ccc12,"inconclusive: 18.5 µM [inhibitor, single point]",
c1csc(-c2nc3c4ccccc4c4ccccc4c3[nH]2)c1,"inconclusive: 18.5 µM [inhibitor, single point]",
C=CCc1cc(/C=C2/NC(=O)NC2=O)cc(OCC)c1O,active: 1.04 µM,
CN(Cc1ccccc1)C(=O)COC(=O)c1ccc2c(c1)OCO2,,inactive: 34.7%
CCCCOc1ccc(C(=O)OC(C)CN(C)C)cc1 (centres undefined),"inconclusive: 4.15 µM [inhibitor, single point]",
Cc1cc(Oc2ccccc2F)nc(NCc2ccccc2)n1,,inactive: 34.5%

# Copied from the list:
# Entry of CCN(CC)CCCNC(=O)c1nn(-c2cccc(OC)c2)c(=O)c2ccccc12 under Potency: inconclusive: 0.738 µM [inhibitor, partial curve, poor fit]
# Entry of Cc1ccc(S(=O)(=O)NCCc2ccncc2)cc1 under activity change, negative = inhibition: inactive: 194%

# (further entries)

SMILES,Potency,"activity change, negative = inhibition"
Cc1cc2c(ncn2Cc2ccccc2)c(N)c1C,"inconclusive: 14.7 µM [inhibitor, partial curve, poor fit]",
CC(=O)c1cccc(NC(=O)CCC(=O)c2ccc(F)cc2)c1,"inconclusive: 18.5 µM [inhibitor, single point]",
CCCCn1c(N)c(N(CCOC)C(=O)CSc2nnc(-c3ccncc3)n2CCC)c(=O)[nH]c1=O,,inactive: 5.77%
CCOc1ccc(N2C(=O)/C(=C/c3ccc(C)o3)N(C)C2=S)cc1,"inconclusive: 18.5 µM [inhibitor, single point]",
COc1ccc(S(=O)(=O)C(C#N)c2nc3ccccc3nc2N2CCC(C)CC2)cc1 (centres undefined),"inconclusive: 0.147 µM [inhibitor, full curve, poor fit]",
Cc1ccc(S(=O)(=O)N2CCCC(C(=O)NCCCN3CCCCC3C)C2)cc1 (centres undefined),"inconclusive: 0.738 µM [inhibitor, partial curve, poor fit]",
CCOC(=O)c1c(C)[nH]c(C)c1C(=O)COC(=O)c1cc2ccccc2cc1O,"inconclusive: 0.657 µM [inhibitor, partial curve, poor fit]",
O=C(O)[C@@H]1CCCN1c1ncnc2sc3c(c12)CCC3,"inconclusive: 18.5 µM [inhibitor, single point]",
Cc1cc(C)c(NS(=O)(=O)c2ccc(NC(=O)CCC(=O)O)cc2)c(C)c1,"inconclusive: 18.5 µM [inhibitor, single point]",
O=C(O)CC1SC(=O)N(Cc2ccccc2)C1=O (centres undefined),"inconclusive: 4.15 µM [inhibitor, partial curve, poor fit]",
O=C(CN(C(=O)c1cc2c(s1)CCC2)C1CCCC1)NCc1cccs1,"inconclusive: 18.5 µM [inhibitor, single point]",
COc1ccc(NC(=O)CSc2ccc(-c3sc(C)nc3C)nn2)cc1,active: 13.1 µM,
CCOc1ccc(CNC(=O)C(=O)c2cn(CC(=O)N3CCOCC3)c3ccccc23)cc1OC,,inactive: -25.2%
CC(Oc1ccc(-c2ccccc2)c(F)c1)c1ccn(S(=O)(=O)c2ccc(Br)cc2)n1 (centres undefined),active: 10.4 µM,
COCCn1c(=NC(=O)CCS(=O)(=O)c2ccccc2)sc2c(OC)ccc(OC)c21,"inconclusive: 16.5 µM [inhibitor, single point]",
CCC(CO)Nc1nc(CN2CCCCC2)nc2scc(-c3ccccc3)c12 (centres undefined),"inconclusive: 7.38 µM [inhibitor, partial curve]",
O=C1CC(N2CCN(c3ccccc3)CC2)C(=O)N1CCc1ccccc1 (centres undefined),,inactive: 10.6%
NC(=O)CC(NC(=O)c1cccc(Br)c1)c1ccc(NCC2CC2)c([N+](=O)[O-])c1 (centres undefined),"inconclusive: 14.7 µM [inhibitor, partial curve, poor fit]",
CCCCC1CCc2[nH]nc(C(=O)O)c2C1 (centres undefined),"inconclusive: 18.5 µM [inhibitor, single point]",
CCN(CC)S(=O)(=O)c1ccc(N2CCCC2)c(NC(=O)Cc2c(F)cccc2Cl)c1,,inactive: -25.2%
CC(C)C1=C2OC(N)=C(C#N)C(C#N)=C2C(C)CC1 (centres undefined),"inconclusive: 0.0026 µM [inhibitor, partial curve, poor fit]",
CCOc1ccc(CCNC(=O)C2=C(C)C(=O)OC23CCC(C)CC3)cc1OCC (centres undefined),"inconclusive: 18.5 µM [inhibitor, single point]",

# Source: PubChem BioAssay AID504834 (National Center for Advancing Translational Sciences (NCATS), 2011)
